From publication PMC7819943, “Rice protein-binding microarrays: a tool to detect cis-acting elements near promoter regions in rice”
The other results are listed elsewhere or left out.

Sequences of proteins named here, by UniProt entry; tags and fusion partners are left off.
UniProt Q0JBA9, entry or part of it: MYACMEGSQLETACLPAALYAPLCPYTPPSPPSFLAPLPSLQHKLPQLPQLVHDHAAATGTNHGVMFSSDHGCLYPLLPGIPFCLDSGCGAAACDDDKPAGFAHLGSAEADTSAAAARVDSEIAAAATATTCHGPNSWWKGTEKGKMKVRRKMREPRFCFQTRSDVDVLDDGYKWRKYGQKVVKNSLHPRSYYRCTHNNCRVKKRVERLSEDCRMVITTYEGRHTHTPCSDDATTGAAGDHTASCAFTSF

Target: OsWRKY34 (Oryza sativa, UniProt Q0JBA9 1-250)
Assay: protein-binding microarray (RPBM); PBS, 2% BSA, 51.3 ng/ul salmon testes DNA, 50 uM zinc acetate, 200 nM TF, 25 C, 1 h; high values mean tight binding
Conditions: protein: recombinant; tags: N-terminal polyhistidine and DsRed monomer fusion (pET32a); label: CyDye5-dUTP incorporated in the synthesized complementary strand; 3' TTTTT single-stranded linker to array surface; dsDNA, one strand shown
Outline: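 In PBS with 2% BSA, salmon testes DNA and 50 µM zinc acetate, 200 nM protein was incubated on a custom Agilent array at 25 °C for 1 h and then washed off. The array had been made double-stranded by primer extension with Cy5-dUTP and blocked with 2% BSA. The proteins were transcription factors fused N-terminally to polyhistidine and DsRed, expressed in E. coli BL21-CodonPlus and purified on Ni–NTA. The binding signal is per-feature fluorescence intensity (arbitrary units) from an Axon 4000B scanner.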

Compared with “CACTTAATCTTCATCTTTATCCTCATCTACTTGAGTTACTCGGAGTCACCTAGTGCAG”, “CCCTCCGTTTCTTTTTATTTGTCGTTTTTGACAGCTTCAGCGGAGTCACCTAGTGCAG” is lower in binding signal: 10700 fluorescence intensity (a.u.) for the first, 9420 fluorescence intensity (a.u.) for the second.

First: TAACTTTCCACTTTTCTGTCATATCGTTTTAATTTTAACTCGGAGTCACCTAGTGCAG
Second: CCATAGACTTCACTACTCATCTTGTTCGTCGTTTTAGTTGCGGAGTCACCTAGTGCAG
The binding signal of the first is higher: 10300 fluorescence intensity (a.u.) for the first, 8540 fluorescence intensity (a.u.) for the second.

First: TTATGTTAAGATCACCCTACACTGCTTATGCCATGATCATCGGAGTCACCTAGTGCAG
Second: TCAATCTATCCATATTAGTCCTTCAAGTTTTCATTTTAGTCGGAGTCACCTAGTGCAG
The binding signal of the first is higher: 9760 fluorescence intensity (a.u.) for the first, 8160 fluorescence intensity (a.u.) for the second.

Compared with “GTATTTTAAATTCCACTTGAAGTATTTTTGGTTCTTTCACCGGAGTCACCTAGTGCAG”, “ACATACTCACACTCTGCCTAGTAAAGTCTAACAATGGTCCCGGAGTCACCTAGTGCAG” is higher in binding signal: 8060 fluorescence intensity (a.u.) for the first, 9000 fluorescence intensity (a.u.) for the second.

Compared with “CTCTCTCATCCATTGCCTCGTTTTTCTCTATAGACTATCTCGGAGTCACCTAGTGCAG”, “TAGGTGATCCATTCTTTCTTTCTTTTCCTTTTTTGTCTTCCGGAGTCACCTAGTGCAG” is higher in binding signal: 8680 fluorescence intensity (a.u.) for the first, 11900 fluorescence intensity (a.u.) for the second.

Going from “CAAGCCTACGCTACTCGTTGGATTGTCATTTTCTCATTTTCGGAGTCACCTAGTGCAG” to “ACGACCCGTCTAGTTGCCCGTTCACGATTCACGCCTTCACCGGAGTCACCTAGTGCAG”, the binding signal rises from 9040 fluorescence intensity (a.u.) to 9990 fluorescence intensity (a.u.).

Going from “ACACAGTCACACTCATCTCCCTGTTGGATGTTCACAGTCGCGGAGTCACCTAGTGCAG” to “ACATCGAATCCGCCATCGTTCCTTAGCTACGCCATATAATCGGAGTCACCTAGTGCAG”, the binding signal rises from 9770 fluorescence intensity (a.u.) to 13200 fluorescence intensity (a.u.).

Going from “TGGTATTCCCTGTCCCCAACACCCACAAGAATACAAGAACCGGAGTCACCTAGTGCAG” to “TCAAGCCTACTTCACCACTTTTCCTCCATCCATTTTGTCACGGAGTCACCTAGTGCAG”, the binding signal rises from 8260 fluorescence intensity (a.u.) to 9110 fluorescence intensity (a.u.).

Compared with “TATCGATCAGGCATCACCCACTCCAAGCCATGGCCCTTTCCGGAGTCACCTAGTGCAG”, “CTCTTCTCTACCTATCATATTTATTCTTCATCTATTACGACGGAGTCACCTAGTGCAG” is higher in binding signal: 8320 fluorescence intensity (a.u.) for the first, 9070 fluorescence intensity (a.u.) for the second.

First: GGCTTATTACCAGTGGGACACCCACTTTTTCTTTTATTTTCGGAGTCACCTAGTGCAG
Second: GGGTTATCTCGTCGTTTGCTTCGCTGTTATGCCGCCGCGGCGGAGTCACCTAGTGCAG
The binding signal of the first is lower: 8340 fluorescence intensity (a.u.) for the first, 16000 fluorescence intensity (a.u.) for the second.

Compared with “AATAAGTTAAAACATCTGTCGCTGCAATTCCGGAGATACTCGGAGTCACCTAGTGCAG”, “AACATTCAAACCGTGCTCAATTTCTCTCTCTCTCTCTCTCCGGAGTCACCTAGTGCAG” is higher in binding signal: 8130 fluorescence intensity (a.u.) for the first, 9860 fluorescence intensity (a.u.) for the second.

Compared with “TAACACCCCAACCAAACCCCACTTTGGCACTTTATAAAATCGGAGTCACCTAGTGCAG”, “CATCTTCGTCCTTTAAATTTGTTTTATTTTAAATCCTCTACGGAGTCACCTAGTGCAG” is higher in binding signal: 8310 fluorescence intensity (a.u.) for the first, 8400 fluorescence intensity (a.u.) for the second.

Going from “ACTGTCCATTAATTTCCTAACTCCATGCCGTTTTCCAACTCGGAGTCACCTAGTGCAG” to “CCGTTCGCTCGCTCGCAAGCCCATGCCTCCAAGTAGCTTCCGGAGTCACCTAGTGCAG”, the binding signal rises from 8610 fluorescence intensity (a.u.) to 12000 fluorescence intensity (a.u.).

First: TTATGGGTGGGTGAACAGGTGAGCAGCCAGGTTGATCTCCCGGAGTCACCTAGTGCAG
Second: CGATCTCCGTCCATCGATATGTCACGTACTCCTCACCAACCGGAGTCACCTAGTGCAG
The binding signal of the first is higher: 8810 fluorescence intensity (a.u.) for the first, 8370 fluorescence intensity (a.u.) for the second.

Going from “CTCCCTTGCCGTCCCAGTTTCCCTGTATTCTGCATGCCGTCGGAGTCACCTAGTGCAG” to “ATTCTTTGTCAATTGTCCTTTTTTTTTTTCTGTCAAGCTACGGAGTCACCTAGTGCAG”, the binding signal rises from 9850 fluorescence intensity (a.u.) to 15100 fluorescence intensity (a.u.).

First: ACACCGAAATTTGTGAAAAATACTCCCTCTGTCCCATTTTCGGAGTCACCTAGTGCAG
Second: CTTTTTTAACTTCGGACCTTAATTTCTTTCTCCGAGGCCGCGGAGTCACCTAGTGCAG
The binding signal of the first is higher: 9070 fluorescence intensity (a.u.) for the first, 8220 fluorescence intensity (a.u.) for the second.

First: AGCTAAGGTGATTCTTCATTTGCCTTCTTTAACGTTTCTTCGGAGTCACCTAGTGCAG
Second: GCAAGCTTCATCCATGTCTCACCTTTTCTAAAACCCTAATCGGAGTCACCTAGTGCAG
The binding signal of the first is lower: 8660 fluorescence intensity (a.u.) for the first, 9760 fluorescence intensity (a.u.) for the second.

Compared with “TGCAGATCCTCTTGTTGATGCTGTGCACAATTTCTCAAATCGGAGTCACCTAGTGCAG”, “CTGATGCGTTGTGTAGGGGTTATTATAGGCTTCATTGTTCCGGAGTCACCTAGTGCAG” is higher in binding signal: 8290 fluorescence intensity (a.u.) for the first, 13500 fluorescence intensity (a.u.) for the second.

Going from “ATACTACTACTCCATATAGCTTATTGACTTTGACATATAACGGAGTCACCTAGTGCAG” to “ATGAGGGAAGTGTGGCGCTGTAGCTTCGGGTGGTGGGGCTCGGAGTCACCTAGTGCAG”, the binding signal rises from 8800 fluorescence intensity (a.u.) to 10400 fluorescence intensity (a.u.).

Going from “TGGCGATCCTTATGAGTTGTGGTGGTTTGACTTACCTGTCCGGAGTCACCTAGTGCAG” to “AATCGAGCTTACCGTTTGACCCTCTTTTCGCTCACCGTTACGGAGTCACCTAGTGCAG”, the binding signal rises from 10200 fluorescence intensity (a.u.) to 10400 fluorescence intensity (a.u.).

First: CTGGACGCGGTCCTGCACGACACATGCATCATCTCCTCAACGGAGTCACCTAGTGCAG
Second: CTTTATTTACGTTTAGAACTGTTTATTACTTGTCGTTTTGCGGAGTCACCTAGTGCAG
The binding signal of the first is lower: 8570 fluorescence intensity (a.u.) for the first, 9950 fluorescence intensity (a.u.) for the second.

First: TATTATGGTATTATCAAATCTTGCCCGCGTATTAAAATGCCGGAGTCACCTAGTGCAG
Second: TTTCTTGATTAGGGTTTGAATTCATATTACTAACTTTCCTCGGAGTCACCTAGTGCAG
The binding signal of the first is higher: 9630 fluorescence intensity (a.u.) for the first, 8450 fluorescence intensity (a.u.) for the second.

Going from “GTTGATTGTCCTGCTTCTTTTCTGTATTGAGATTCTTGTACGGAGTCACCTAGTGCAG” to “CCATGGCGGGCGAGTTAGTTGGTCAGAGTTGTAGTTAACCCGGAGTCACCTAGTGCAG”, the binding signal falls from 8390 fluorescence intensity (a.u.) to 8310 fluorescence intensity (a.u.).

First: GCTTAAGTGTGATCCTATCATTCCTCACCTGCATTCATTCCGGAGTCACCTAGTGCAG
Second: TCTCGTCTCCTCCGCTCCTTGTGCCTGCGCCCATCGACTCCGGAGTCACCTAGTGCAG
The binding signal of the first is higher: 9390 fluorescence intensity (a.u.) for the first, 8620 fluorescence intensity (a.u.) for the second.

Compared with “TGTCGTGGTTGGGGAAAAGGGATAAATGAAGGGAGGAGGACGGAGTCACCTAGTGCAG”, “TCTCACTATTTCATTTTTTTTATTAATAATGGATGTTAAACGGAGTCACCTAGTGCAG” is higher in binding signal: 8210 fluorescence intensity (a.u.) for the first, 8460 fluorescence intensity (a.u.) for the second.

First: GAGAGCTGCATTTGTCTTTTCTTTTTTCAGAAGCTAGTAGCGGAGTCACCTAGTGCAG
Second: TCTTCTTCTTGTTGTTCTTGTTCTTTCTTCTTCCCCTTTTCGGAGTCACCTAGTGCAG
The binding signal of the first is lower: 8080 fluorescence intensity (a.u.) for the first, 18800 fluorescence intensity (a.u.) for the second.

First: TTCTTTCAACCATCAACTTCAGTTACTGTATGTATATCCCCGGAGTCACCTAGTGCAG
Second: TACTTGTCTCTTTGAGCTACACTCTTTCACATCAACTTTTCGGAGTCACCTAGTGCAG
The binding signal of the first is higher: 9410 fluorescence intensity (a.u.) for the first, 9050 fluorescence intensity (a.u.) for the second.
